Reference: US9630989B2, “Dipeptide analogs for treating conditions associated with amyloid fibril formation” (Ramot at Tel-Aviv University Ltd., priority 2010, dated 2017)
At least one structure is not confirmed: it was looked up by name or label, or the drawing left a doubt. Non-standard residues stand in square brackets, D forms with d. Residues, ends and D or L forms follow the SMILES beside them. Ac6c = NC1(C(=O)O)CCCCC1; Ac3c = NC1(C(=O)O)CC1

By UniProt entry, the sequences of proteins in these tests, tags left out. Residues count along the entry.
UniProt P05067, 672-713 limits assumed: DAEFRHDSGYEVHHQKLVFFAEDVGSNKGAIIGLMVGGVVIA

Target: T1, Aβ1-42 (Homo sapiens, UniProt P05067)
T1 construct: β-amyloid polypeptides (Aβ 1-42, >98% pure); purchased Bachem (Bubendorf, Switzerland); host or cells: chemical synthesis
Assay: Aβ1-42 globulomer generation / oligomer formation (Hillen protocol), gel staining and western blot
Type: biochemical
Description: Aβ1-42 intermediates and globulomers were produced according to Barghorn et al. [J. Neurochem. 2005 November; 95(3):834-47]. Synthetic lyophilized β-amyloid polypeptides (Aβ 1-42, >98% pure) were purchased from Bachem (Bubendorf, Switzerland). To avoid pre-aggregation, synthetic lyophilized Aβ1-42 was pretreated with HFIP. Aβ1-42 was dissolved in 100% HFIP, sonicated for 20 seconds and incubated for 2 hours at 37° C. under shaking at 100 RPM. After evaporation in a speedVac, Aβ1-42 was re-suspended in DMSO, with or without the tested peptide, to 5 mM and diluted with 20 mM NaH2PO4, 140 mM NaCl, pH 7.4, to a final concentration of 400 μM, and 1/10 volume 2% SDS (final concentration of 0.2%). The Aβ globulomers were generated by further dilution with two volumes of H2O and incubation for 18 hours or more.
To evaluate the effect of D-Trp-Aib analogs on the transformation of the Aβ1-42 into the toxic assemblies, the tested peptides were incubated with Aβ1-42 at increasing molar ratios, and the reaction mixtures were resolved on SDS-PAGE followed by western blot analysis by a specific anti Aβ antibody (6E10) (SIGNET).

[1] = 10:1 (inhibitor:Aβ peptide) molar ratio

SMILES	inhibitor:Aβ peptide molar ratio at which complete inhibition of Aβ1-42 globulomer generation was shown (inhibitor:Aβ peptide molar ratio)	inhibition of Aβ1-42 globulomer formation [1]	inhibition of Aβ1-42 globulomer formation (20:1 (inhibitor:Aβ peptide) molar ratio)
COC(=O)C(C)(C)NC(=O)C(C)(N)Cc1c[nH]c2ccccc12 (racemic) [Compound 2, methyl 2-(2-amino-3-(1H-indol-3-yl)-2-methylpropanamido)-2-methylpropanoate]	1:1		
COC(=O)C1(NC(=O)C(C)(N)Cc2c[nH]c3ccccc23)CCCC1 (racemic) [Compound 3, methyl 1-(2-amino-3-(1H-indol-3-yl)-2-methylpropanamido)cyclopentanecarboxylate]		inhibit	
N[C@H](Cc1c[nH]c2ccccc12)C(=O)NC1(C(=O)O)CC1 [Compound 5] (H-[dW]-[Ac3c]-OH)		inhibit	
N[C@H](Cc1c[nH]c2ccccc12)C(=O)NC1(C(=O)O)CCCCC1 [Compound 7, 1-(2-amino-3-(1H-indol-3-yl)propanamido)cyclohexanecarboxylic acid] (H-[dW]-[Ac6c]-OH)		inhibit	inhibit
